Test results reported in US9469611B2, “Use of dihydroimidazolones for the treatment of dogs” (BOEHRINGER INGELHEIM VETMEDICA GMBH, priority 2002, dated 2016).
At least one structure is not confirmed: it was looked up by name or label, or the drawing left a doubt.

Tests used:
[1] = system: dogs with newly diagnosed idiopathic epilepsy; test: monotherapy in dogs with newly diagnosed idiopathic epilepsy (AWD 131-138 pilot study; retrospective phenobarbital, primidone)
[2] = system: dogs with chronic idiopathic epilepsy; test: add-on therapy in dogs with chronic idiopathic epilepsy not responding to phenobarbital or primidone; format: in vivo, dog
[3] = add-on to phenobarbital/primidone

Row | SMILES | comparison of antiepileptic efficacy between monotherapy treatment groups ([1]; ANOVA) | dogs in which status epilepticus did not occur anymore ([1]; monotherapy) | dogs in which clusters no longer developed ([1]; monotherapy, dogs with clusters before treatment) | owners reporting subjectively a decrease of seizure severity ([2]; add-on) | Number of dogs with >50% reduction of seizures [2, 3] | Number of nonresponders [2, 3]
1 | CCC1(c2ccccc2)C(=O)NC(=O)NC1=O [Phenobarbital, phenobarbital] | did not indicate any significant differences | 3 out of 4 | 3 out of ten | – | – | –
2 | [Br-].[K+] [Potassium bromide, potassium bromide] | – | – | – | 4 of twelve | 5/12 (42%) | 5/12 (42%)
